{"sequences": {"note": "Protein sequences, listed by entry. Tags and fused reporters are not part of them.", "UniProt P53350, whole entry, looked up": "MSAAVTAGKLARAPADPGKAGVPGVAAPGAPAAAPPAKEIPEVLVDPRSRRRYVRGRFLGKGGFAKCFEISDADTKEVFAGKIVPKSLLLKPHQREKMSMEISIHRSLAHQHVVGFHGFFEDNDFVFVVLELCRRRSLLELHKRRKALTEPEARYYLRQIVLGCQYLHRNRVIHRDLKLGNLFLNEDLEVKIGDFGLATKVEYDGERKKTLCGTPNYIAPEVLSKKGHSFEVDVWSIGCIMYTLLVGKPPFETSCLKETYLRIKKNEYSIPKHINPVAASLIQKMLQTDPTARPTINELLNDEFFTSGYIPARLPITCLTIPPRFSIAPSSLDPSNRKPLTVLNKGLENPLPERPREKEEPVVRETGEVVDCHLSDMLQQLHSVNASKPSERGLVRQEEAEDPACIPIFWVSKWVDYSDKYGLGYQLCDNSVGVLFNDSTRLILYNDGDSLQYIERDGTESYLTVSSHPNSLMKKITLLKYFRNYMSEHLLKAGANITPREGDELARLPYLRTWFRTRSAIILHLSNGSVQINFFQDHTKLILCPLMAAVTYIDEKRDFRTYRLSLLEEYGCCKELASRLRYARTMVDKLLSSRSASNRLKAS"}, "source": "PubChem BioAssay AID720504", "about": "(National Center for Advancing Translational Sciences (NCATS), 2013)", "note": "Several values for one entry are separate records, joined by “and”; a condition that tells them apart may be missing. Equal entries are not always repeated. Screen size: about 360,000 compounds; about 10,000 (2.8%) were called active. The inconclusive results got no clear call from the source; some entries with a clear call stand among them for comparison. Calls follow the shape of the dose curve; as a rule, active = well fitted inhibition curve with a large enough effect; inconclusive = small, poorly fitted or top-dose-only effect; inactive = flat fitted curve, though single readings scatter. Potencies of inconclusive entries are doubtful fits and often do not repeat. % is scaled to controls: 0 for no effect and ±100 for the full control effect; potency is read from the fitted curve at half-maximal effect.", "data": [{"biological_target": "Serine/threonine-protein kinase PLK1 (Homo sapiens) (UniProt P53350)", "experiment": "qHTS for Inhibitors of PLK1-PDB (polo-like kinase 1 - polo-box domain): Primary Screen; also: nearly all actives have a fitted effect of over 65% in size; as to max response, negative = inhibition: series mostly up to about 57 µM", "details": "Plk1 PBD binding of FITC phosphopeptide, fluorescence polarization", "values": [{"smiles": "CCn1c(/C=C/Nc2ccccc2)[n+](CC)c2ccc(Cl)cc21", "max response, negative = inhibition": "inactive: -6.88%"}, {"smiles": "O=C(CCl)Nc1nc(-c2ccco2)c(-c2ccco2)s1", "Potency": "inconclusive: 11.9 µM [inhibitor, partial curve]"}, {"smiles": "Nc1nc(=S)c2[nH]c(=S)[nH]c2[nH]1", "Potency": "inconclusive: 26.7 µM [inhibitor, partial curve]"}, {"smiles": "COc1cc(NC(=O)CSc2cc(C)c3cc(C)cc(C)c3n2)c(C(=O)O)cc1OC", "Potency": "inconclusive: 23.8 µM [inhibitor, single point]"}, {"smiles": "O=Cc1ccc(-c2ccc(C(=O)O)cc2)o1", "max response, negative = inhibition": "inconclusive: -32% [inhibitor]"}, {"smiles": "COC(=O)COc1cccc(NC(=O)c2ccc(Cl)cc2)c1", "Potency": "active: 29.9 µM"}, {"smiles": "CCOC(=O)c1c(CC(C)C)csc1NC(=O)c1ccccc1C(=O)O", "Potency": "inconclusive: 29.9 µM [inhibitor, partial curve]"}, {"smiles": "CCCCn1c(NS(=O)(=O)c2ccc(C)cc2)c(S(=O)(=O)c2ccccc2)c2nc3ccccc3nc21", "Potency": "active: 16.8 µM and active: 9.47 µM"}, {"smiles": "COc1ccc(C2Nc3ccccc3C(=O)N2Cc2ccco2)cc1CN1C(=O)c2ccccc2C1=O", "note": "(stereo not drawn)", "max response, negative = inhibition": "inactive: -3.6% and inactive: -0.441%"}, {"smiles": "COc1ccc(N2CCN(C(CNC(=O)C(=O)NCc3cccs3)c3ccco3)CC2)cc1", "note": "(stereo not drawn)", "Potency": "inconclusive: 23.8 µM [inhibitor, single point]"}, {"smiles": "CC(C)OP(=O)(OC(C)C)C(Nc1ccccc1)c1cccnc1", "note": "(stereo not drawn)", "Potency": "inconclusive: 33.6 µM [inhibitor, single point]"}, {"smiles": "O=C1/C(=C/c2cccc(F)c2)Oc2cc(O)ccc21", "Potency": "inconclusive: 23.8 µM [inhibitor, partial curve]"}, {"smiles": "Cc1nc(-c2ccccc2)sc1C(=O)CSc1ccc(F)cc1", "Potency": "inconclusive: 18.9 µM [inhibitor, partial curve]"}, {"smiles": "COC(=O)c1cc(S(=O)(=O)NCc2ccc3c(c2)OCO3)cn1C", "max response, negative = inhibition": "inactive: -9.96%"}, {"smiles": "Nc1cccc2c(O)cc(S(=O)(=O)O)cc12", "Potency": "active: 13.4 µM"}, {"smiles": "COc1cc(NC2=Nc3cccc4cccc2c34)cc(OC)c1OC", "max response, negative = inhibition": "inactive: -0.448%"}, {"smiles": "Cc1[nH]n(C(N)=S)c(=O)c1N=Nc1cccc(C(F)(F)F)c1", "Potency": "inconclusive: 23.8 µM [inhibitor, partial curve]"}, {"smiles": "CCCn1c(N2CCN(CC(=O)c3c[nH]c4ccccc34)CC2)nc2c1c(=O)[nH]c(=O)n2C", "max response, negative = inhibition": "inactive: 2.04%"}, {"smiles": "CCCCC1=CC2=CC(=O)C(C)(OC(=O)CC)C(=O)C2=CN1c1cccc(C#N)c1", "note": "(stereo not drawn)", "Potency": "inconclusive: 29.9 µM [inhibitor, partial curve]"}, {"smiles": "COc1ccc(-c2csc(NNC3=NCCCCC3)n2)cc1", "Potency": "active: 6.7 µM"}, {"smiles": "O=C1c2ccccc2-c2cccc(NS(=O)(=O)c3ccc(C(F)(F)F)cc3)c21", "max response, negative = inhibition": "inactive: 14.5%"}, {"smiles": "Cc1ccoc1C(=O)NCCCNC(=O)c1occc1C", "Potency": "active: 26.7 µM"}, {"smiles": "C=CCc1ccccc1OCC(O)CN(C(C)C)C(C)C", "note": "(stereo not drawn)", "Potency": "inconclusive: 29.9 µM [inhibitor, partial curve]"}, {"smiles": "COc1cc(CN(C)C(C)C(=O)Nc2ccc([N+](=O)[O-])cc2Cl)ccc1OC(F)F", "note": "(stereo not drawn)", "max response, negative = inhibition": "inactive: 0.533%"}, {"smiles": "Cc1ccc(Cn2c(/C=C/c3ccco3)nc3ccccc32)cc1", "max response, negative = inhibition": "inactive: -1.97%"}, {"smiles": "Cc1cccc(C(=O)O)c1NC(=O)c1ccc(F)cc1", "max response, negative = inhibition": "inactive: 0.509%"}, {"smiles": "CCN1C(=NCc2ccc(OC)cc2)N[C@@H](c2ccccc2)[C@H](C(=O)OC)[C@H]1C", "max response, negative = inhibition": "inactive: 6.32%"}, {"smiles": "CC(=O)c1ccccc1OC(=O)COc1ccc(Cl)cc1C", "Potency": "active: 21.2 µM"}, {"smiles": "N#Cc1ccccc1Sc1ccccc1C(=O)OCc1nnc(-c2ccccc2)o1", "max response, negative = inhibition": "inactive: -8.47% and inactive: 4.28%"}, {"smiles": "COc1cc(/C=C2\\C(=N)N3N=CSC3=NC2=O)ccc1OS(=O)(=O)c1ccccc1", "Potency": "inconclusive: 26.7 µM [inhibitor, partial curve]"}, {"smiles": "O=C(NCSc1ccncn1)c1ccccc1", "Potency": "inconclusive: 26.7 µM [inhibitor, partial curve]"}, {"smiles": "COc1ccc(N=C(NN)c2ccc3ccccc3n2)cc1", "Potency": "active: 11.9 µM"}, {"smiles": "COc1ccc(OC)c(NC(=S)NCCC(c2ccccc2)c2ccccc2)c1", "Potency": "inconclusive: 23.8 µM [inhibitor, partial curve]"}, {"smiles": "CCc1ccc(NSc2ccccc2[N+](=O)[O-])cc1", "Potency": "inconclusive: 21.2 µM [inhibitor, partial curve]"}, {"smiles": "CCN(CC)C(=O)c1cc([N+](=O)[O-])cc2c1-c1ccc([N+](=O)[O-])cc1C2=C(C#N)C#N", "Potency": "active: 9.47 µM"}, {"smiles": "COc1ccc(C(=O)NC(=S)Nc2ccc(N3CCOCC3)cc2)cc1Cl", "max response, negative = inhibition": "inactive: -0.729%"}, {"smiles": "CN(C(=O)c1cccc(NC(=O)Cc2ccc(NC(=O)C3CCCN(S(=O)(=O)c4cccc([N+](=O)[O-])c4)C3)cc2)c1)C1CCCC1", "note": "(stereo not drawn)", "Potency": "inconclusive: 23.8 µM [inhibitor, single point]"}, {"smiles": "CCOC(=O)c1ccc(COc2nc3ccccc3nc2-c2ccccc2NC(C)=O)o1", "max response, negative = inhibition": "inconclusive: -37.6% [inhibitor]"}, {"smiles": "COc1ccc(-c2nc(CS(=O)(=O)CC(=O)NCCc3cc(OC)ccc3OC)c(C)o2)cc1", "max response, negative = inhibition": "inactive: 0.715%"}, {"smiles": "CCNC(=S)NN=C1c2ccccc2-c2ccccc21", "max response, negative = inhibition": "inactive: -1.47%"}, {"smiles": "CC(=O)c1cc(NC(=O)c2ccccc2)c(=O)oc1C", "Potency": "inconclusive: 23.8 µM [inhibitor, partial curve]"}, {"smiles": "Cc1cc(N2CCN(C)CC2)nc2ccc(NC(=S)N3CCN(c4ccccn4)CC3)cc12", "max response, negative = inhibition": "inactive: -3.34%"}, {"smiles": "O=C(COC(=O)c1ccc(S(=O)(=O)NCc2ccco2)cc1)Nc1ccccc1OC(F)F", "max response, negative = inhibition": "inactive: -1.25%"}, {"smiles": "C/C(=N\\NC(=S)NCc1ccccc1)c1ccco1", "Potency": "inconclusive: 29.9 µM [inhibitor, partial curve]"}, {"smiles": "CC1CCCN(C(=O)c2cccc(S(=O)(=O)N3CCCc4ccccc43)c2)C1", "note": "(stereo not drawn)", "Potency": "inconclusive: 29.9 µM [inhibitor, single point]"}, {"smiles": "O=C(Nc1nnc(SCc2ccc(Cl)cc2)s1)c1ccco1", "Potency": "active: 2.99 µM"}, {"smiles": "COc1ccc(C2OC34CCCCC3C(C#N)(C#N)C2(C#N)C(=N)O4)cc1", "note": "(stereo not drawn)", "max response, negative = inhibition": "inactive: -25.9%"}, {"smiles": "Cc1ccc(S(=O)(=O)Nc2nc(-c3ccc(F)cc3)cs2)cc1", "Potency": "inconclusive: 29.9 µM [inhibitor, single point]"}, {"smiles": "CNC(=S)N(CCc1ccc(OC)c(OC)c1)Cc1cc2c(C)cc(C)cc2[nH]c1=O", "max response, negative = inhibition": "inactive: 3.96%"}, {"smiles": "CC(=O)c1c(C)[nH]c(C(=O)CSc2nnc(-c3ccc(Cl)cc3)n2CC2CCCO2)c1C", "note": "(stereo not drawn)", "max response, negative = inhibition": "inactive: -11.5%"}, {"smiles": "CCOC(=O)C1CCN(Cc2ccc3ccccc3c2)CC1", "max response, negative = inhibition": "inactive: 2.93%"}, {"smiles": "O=C(CC1Oc2ccccc2NC1=O)NCc1ccccc1", "note": "(stereo not drawn)", "Potency": "active: 21.2 µM"}, {"smiles": "O=[N+]([O-])c1ccc2nc(-c3ccccc3)n(OCc3ccc(Cl)cc3)c2c1", "Potency": "inconclusive: 75.2 µM [inhibitor, partial curve]"}, {"smiles": "Cc1csc(N2CCCC2c2nc3cc(Cl)c(N4CCCCC4)cc3n2CCOCCO)n1", "note": "(stereo not drawn)", "Potency": "inconclusive: 21.2 µM [inhibitor, single point]"}, {"smiles": "COc1ccccc1CNC(=O)C(NS(=O)(=O)c1ccc2c(c1)OCCO2)C(C)C", "note": "(stereo not drawn)", "Potency": "inconclusive: 37.7 µM [inhibitor, single point]"}, {"smiles": "O=C(/C=C/c1ccccc1)NC(=S)Nc1ccc2c3c(cccc13)CC2", "max response, negative = inhibition": "inactive: -6.82%"}, {"smiles": "CCOc1ccc(C(=O)NC(=S)Nc2ccc(N3CCCCC3)cc2)cc1[N+](=O)[O-]", "Potency": "active: 5.97 µM"}, {"smiles": "S=C(NCCc1ccncc1)Nc1ccccc1", "Potency": "inconclusive: 23.8 µM [inhibitor, single point]"}, {"smiles": "Cc1ccc(C2CC(c3cccs3)=NN2C(=O)CCl)cc1", "note": "(stereo not drawn)", "Potency": "inconclusive: 8.44 µM [inhibitor, partial curve]"}, {"smiles": "COc1ccccc1Nc1ncc(-c2cccs2)s1", "Potency": "inconclusive: 16.8 µM [inhibitor, partial curve]"}, {"smiles": "COC(=O)c1cccc(NC(=S)NCc2ccco2)c1", "Potency": "inconclusive: 21.2 µM [inhibitor, partial curve]"}, {"smiles": "COC(=O)C1=C(C)N(Cc2ccccc2)C(=NCCc2c[nH]c3ccccc23)N[C@H]1c1cccc(C(F)(F)F)c1", "max response, negative = inhibition": "inactive: -10.9%"}, {"smiles": "O=c1oc2ccccc2cc1-c1csc(NN=C2CCCCC2)n1", "Potency": "inconclusive: 67 µM [inhibitor, partial curve]"}, {"smiles": "O=C(Nc1ccc(F)cc1F)c1cc(-c2ccco2)nc2ccccc12", "Potency": "inconclusive: 21.2 µM [inhibitor, partial curve]"}, {"smiles": "COc1ccc(C2NC(=S)N3C(c4ccc(OC)cc4)NC(=S)N23)cc1", "note": "(stereo not drawn)", "Potency": "active: 8.44 µM"}, {"smiles": "CC(=O)Nc1ccc(SC[C@H](Cc2ccccc2)N2CC[C@@H](C)CCC2=O)cc1", "Potency": "inconclusive: 23.8 µM [inhibitor, single point]"}, {"smiles": "CCOC(=O)C1CCCCN1Cc1ccc(OC)c(OC)c1", "note": "(stereo not drawn)", "max response, negative = inhibition": "inactive: -7.76%"}, {"smiles": "CCCCCC/C(C)=C1/SC(=S)NC1=O", "Potency": "active: 23.8 µM"}, {"smiles": "COc1ccc(C(=O)CCS(=O)(=O)c2ccc(C)cc2)cc1", "Potency": "active: 10.6 µM"}, {"smiles": "CN1/C(=C\\C(=O)c2cccs2)Sc2ccccc21", "Potency": "inconclusive: 33.6 µM [inhibitor, partial curve]"}, {"smiles": "Cc1cnc(NC(=O)CCCc2nc3ccccc3s2)s1", "Potency": "inconclusive: 23.8 µM [inhibitor, partial curve]"}, {"smiles": "COc1cc(/C=C(/C#N)C(=O)Nc2ccccc2)ccc1OCc1ccc(C(=O)O)cc1", "Potency": "inconclusive: 26.7 µM [inhibitor, partial curve]"}, {"smiles": "O=C(Nc1ccc([N+](=O)[O-])cc1)Nc1ccc2[nH]c(=O)[nH]c2c1", "Potency": "inconclusive: 21.2 µM [inhibitor, partial curve]"}]}]}
